Results from paper PMC10624832.
These are yes or no findings as the source states them, for the method shown.

Sequences of proteins named here, by UniProt entry; tags and fusion partners are left off. A change or cut given only in a name is not applied to a line headed by its entry. A line that says so, or that is headed by a name, gives the form on record, which may keep a tag or linker.
DNAJB6 ΔST (deletion of res. 138-182), monomeric DNAJB6 WT (O75190-2, form named): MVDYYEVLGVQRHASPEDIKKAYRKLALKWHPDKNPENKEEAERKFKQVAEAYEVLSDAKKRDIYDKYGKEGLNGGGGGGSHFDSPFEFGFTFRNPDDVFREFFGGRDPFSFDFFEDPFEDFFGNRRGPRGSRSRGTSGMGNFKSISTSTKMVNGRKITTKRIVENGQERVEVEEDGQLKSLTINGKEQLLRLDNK

Molecular target: DNAJB6 ΔST (deletion of res. 138-182), monomeric DNAJB6 WT (human) (UniProt O75190)
Experiment: SEC-MALS; 100 µM DNAJB6 WT, LGMDD1 disease mutants or DNAJB6 ΔST on Superose 6 Increase 10/300 GL; both purified

binding: no binding (tested: 100 µM)
Substance: DNAJB6 ΔST (deletion of res. 138-182), monomeric DNAJB6 WT (from UniProt O75190-2 1-241)
